Patent US20230286934A1, “Use of Multi-Kinase Inhibitors to Treat RNA Virus Infections” (priority 2020, published 2023)
At least one compound was matched to its structure with a doubt left.

Experiments:
Type in all cases: cell-based
SARS-CoV2 WA-2020 strain [1] = conditions: Vero E6, 40,000 cells/well, MOI 0.01, 72 hours
SARS-CoV2 WA-2020 strain [2] = conditions: Vero E6, 40,000 cells/well, MOI 0.01, 72 hours supernatant
SARS-CoV2 WA-2020 strain [3] = conditions: Vero E6, 2000 cells/well, MOI 0.05, 72 hours

In the case of `CCC(CC)COC(=O)[C@H](C)N[P@](=O)(OC[C@H]1O[C@@](C#N)(c2ccc3c(N)ncnn23)[C@H](O)[C@@H]1O)Oc1ccccc1` [Remdesivir], the “release of NP protein from infected cells into the medium” value (SARS-CoV2 WA-2020 strain [1]) is reported as “inhibited infection markedly in a dose response manner”, the “infectious titer of released virus (plaque assay)” value (SARS-CoV2 WA-2020 strain [2]) is reported as “inhibition of infection was also correlated to the recovery of infectious virus” and the “release of NP protein / virus from infected cells” value (SARS-CoV2 WA-2020 strain [3]) is reported as “inhibited infection markedly in a dose response manner”.
